In test [1] the target is T1, GFP-IRS2-601-1321 (mouse) (UniProt P81122).
T1 sequence: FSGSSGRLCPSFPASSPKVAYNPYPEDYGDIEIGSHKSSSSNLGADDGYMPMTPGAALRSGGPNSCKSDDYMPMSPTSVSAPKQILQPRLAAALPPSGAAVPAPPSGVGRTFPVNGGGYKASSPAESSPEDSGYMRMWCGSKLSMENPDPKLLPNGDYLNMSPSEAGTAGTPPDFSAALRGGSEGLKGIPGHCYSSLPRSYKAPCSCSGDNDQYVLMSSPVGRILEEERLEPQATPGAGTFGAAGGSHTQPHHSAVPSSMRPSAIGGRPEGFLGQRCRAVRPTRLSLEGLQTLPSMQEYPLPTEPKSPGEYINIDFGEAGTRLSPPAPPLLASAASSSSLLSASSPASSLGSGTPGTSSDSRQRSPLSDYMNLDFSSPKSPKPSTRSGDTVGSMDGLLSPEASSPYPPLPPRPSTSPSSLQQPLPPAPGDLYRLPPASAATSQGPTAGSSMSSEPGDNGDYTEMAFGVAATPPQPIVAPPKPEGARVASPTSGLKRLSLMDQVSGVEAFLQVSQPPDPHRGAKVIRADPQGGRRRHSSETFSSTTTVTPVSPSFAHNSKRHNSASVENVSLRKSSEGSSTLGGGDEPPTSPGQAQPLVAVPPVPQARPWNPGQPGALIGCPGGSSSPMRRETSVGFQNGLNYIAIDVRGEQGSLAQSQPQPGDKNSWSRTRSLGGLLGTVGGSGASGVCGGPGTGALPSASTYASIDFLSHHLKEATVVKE
The test is described as follows: far-Western, overlay or dot blot; GFP-tagged IRS-2 pulled down with GFP-Trap from HEK293 or Flp-In HEK293 lysates, SDS-PAGE, nitrocellulose; membrane incubated overnight at 4°C with 14-3-3ζ-HRP, ECL; cells serum starved, IGF-1, or PI-103, wortmannin or Akti-1/2 before IGF-1; both purified.

In the next test the target is T2, GFP-IRS-2-T517A (mouse) (UniProt P81122).
T2 sequence: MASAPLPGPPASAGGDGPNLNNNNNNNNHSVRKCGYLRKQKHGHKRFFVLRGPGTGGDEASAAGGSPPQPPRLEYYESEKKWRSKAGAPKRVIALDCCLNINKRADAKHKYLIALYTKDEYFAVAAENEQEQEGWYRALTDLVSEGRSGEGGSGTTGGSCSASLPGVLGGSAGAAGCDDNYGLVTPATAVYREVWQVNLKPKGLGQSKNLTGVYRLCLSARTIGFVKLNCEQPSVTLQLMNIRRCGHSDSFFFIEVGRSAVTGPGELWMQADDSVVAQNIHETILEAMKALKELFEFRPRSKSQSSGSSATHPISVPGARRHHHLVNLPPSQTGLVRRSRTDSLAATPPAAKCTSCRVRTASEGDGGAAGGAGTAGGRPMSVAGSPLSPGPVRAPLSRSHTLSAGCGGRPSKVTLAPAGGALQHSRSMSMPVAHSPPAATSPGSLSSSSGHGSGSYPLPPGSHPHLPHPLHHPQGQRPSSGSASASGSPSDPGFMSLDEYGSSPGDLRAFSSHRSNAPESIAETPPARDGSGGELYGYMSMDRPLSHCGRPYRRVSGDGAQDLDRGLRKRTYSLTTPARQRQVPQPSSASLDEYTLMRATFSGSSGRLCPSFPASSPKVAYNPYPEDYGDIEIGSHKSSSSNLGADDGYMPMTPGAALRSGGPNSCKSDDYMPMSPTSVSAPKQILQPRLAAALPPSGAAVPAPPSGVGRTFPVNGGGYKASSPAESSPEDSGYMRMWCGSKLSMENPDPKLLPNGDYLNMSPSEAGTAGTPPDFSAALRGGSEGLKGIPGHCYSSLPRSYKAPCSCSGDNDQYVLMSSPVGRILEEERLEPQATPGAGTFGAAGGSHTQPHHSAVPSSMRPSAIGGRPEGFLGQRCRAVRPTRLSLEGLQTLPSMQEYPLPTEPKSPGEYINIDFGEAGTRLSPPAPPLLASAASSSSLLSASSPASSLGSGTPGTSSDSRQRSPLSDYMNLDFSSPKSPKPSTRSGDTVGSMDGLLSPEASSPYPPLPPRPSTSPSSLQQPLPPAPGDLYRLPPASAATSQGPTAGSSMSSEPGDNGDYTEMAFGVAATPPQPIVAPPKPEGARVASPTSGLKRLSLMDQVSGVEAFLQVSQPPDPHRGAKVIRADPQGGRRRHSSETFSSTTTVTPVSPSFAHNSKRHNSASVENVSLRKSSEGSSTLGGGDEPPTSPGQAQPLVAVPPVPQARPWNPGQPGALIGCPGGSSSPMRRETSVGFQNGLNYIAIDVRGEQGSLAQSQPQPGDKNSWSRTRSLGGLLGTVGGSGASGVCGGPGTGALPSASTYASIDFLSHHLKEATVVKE
Described as above.

Results are given in words; binding and its absence hold for the method and conditions named. For some assays here: Binding calls can cover weak binding; strength is not graded here. Sequences can lack the tags named with a protein.

In the case of Recombinant human 14-3-3ζ-HRP, the binding result was “no binding” in test [1] and “binds” in the test with GFP-IRS-2-T517A (mouse).

Values taken from article PMC3422239.
